# Data: PubChem BioAssay AID493014 (National Center for Advancing Translational Sciences (NCATS), 2011)
# This is one part of the list. Shown are side measurements of this screen, not its main read-out; they come without a call. The list favours compounds with an active or inconclusive main result. Words in brackets tell the shape of the fitted curve; partial curves, single points and poor fits give uncertain potencies.
# Experiment: qHTS Assay to Find Inhibitors of Chronic Active B-Cell Receptor Signaling
# Details: ABC-DLBCL IkBa-CBG/CBR reporter, luminescence ratio (green luciferase fused to IkBa over red control in TMD8 lymphoma cells), 4 h
# In short: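 Compounds up to 46 uM were incubated four hours with TMD8 cells whose green CBG68 luciferase is fused to IkappaBalpha; red CBR luminescence normalised the signal, and concentration-effect curves were fitted to fusion, red and ratio data.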
# [1] = measured here: CBR red luminescence, cell number
SMILES,AC50 [1],AC50 (measured here: IkBa-CBG green luminescence)
CC(C)N1C2OC(C3OC4C(O3)N(C(C)C)S(=O)(=O)N4C(C)C)OC2N(C(C)C)S1(=O)=O (stereo not drawn),"25.9 µM [falling, partial curve, poor fit]",–
Cc1cc(C)nc(NC(N)=NCCc2c[nH]c3ccccc23)n1,"11.2 µM [falling, partial curve]",–
Cc1cc(NC(=O)/C=C/c2ccccc2Cl)n(-c2nc3ccccc3[nH]2)n1,"10.3 µM [falling, partial curve, poor fit]",–
COc1ccccc1CNC(=O)C1(NC(=O)Nc2ccc(C)cc2)CCCCC1,"6.31 µM [rising, full curve, poor fit]",–
CCCC(c1nnnn1CS(=O)(=O)c1ccc(C)cc1)N1CCN(CC)CC1 (stereo not drawn),"6.31 µM [rising, single point]",–
O=C(NNC(=S)Nc1ccccc1)c1cccnc1,"11.2 µM [falling, partial curve]",–
Cn1c(=O)c2c(-c3ccccc3)n(-n3cnnc3)cc2n(C)c1=O,"15.8 µM [falling, single point]",–
O=C1NC(=O)/C(=C\c2ccc(O)cc2O)S1,"8.91 µM [falling, partial curve]",–
O=c1[nH]c(CN2CCN(Cc3ccc4c(c3)OCO4)CC2)nc2sc3c(c12)CCC3,"6.51 µM [rising, single point]",–
COCc1cc(C)nc(N/N=C/c2ccc(-c3ccc(C(=O)O)c(Cl)c3)o2)c1C#N,–,"8.91 µM [rising, partial curve, poor fit]"
O=c1c2c3c(sc2n2cnnc2n1C1CCCCC1)CCC3,"7.94 µM [rising, partial curve, poor fit]",–
Cc1ccc(C2=Nc3ccccc3N=C(C(Cl)Cl)C2)cc1,"25.1 µM [falling, single point]",–
CCCCc1ncc(CN2CCN(Cc3ccc(C)cc3)C(CCO)C2)[nH]1 (stereo not drawn),"35.5 µM [falling, single point]",–
O=C(NCCc1ccccc1)c1noc2c1CCCCC2,"11.2 µM [falling, single point]",–
CCc1ccccc1SCc1noc(C(=O)NCC2CCCO2)c1C(=O)O (stereo not drawn),"20 µM [falling, partial curve, poor fit]",–
c1coc(CSc2ncnc3c2oc2ccccc23)c1,"3.55 µM [rising, partial curve]",–
COc1ccccc1CNc1nc2nc(C)c(C)c(=O)n2[nH]1,"29.1 µM [falling, single point]",–
O=S(=O)(Cc1ccc(Cl)cc1)N1CCCCCC1,"22.4 µM [rising, partial curve, poor fit]",–

# Looked up by compound from above:
SMILES,AC50 [1],AC50 (measured here: IkBa-CBG green luminescence)
Cc1ccc(C2=Nc3ccccc3N=C(C(Cl)Cl)C2)cc1,"25.1 µM [falling, single point]",–
O=c1c2c3c(sc2n2cnnc2n1C1CCCCC1)CCC3,"7.94 µM [rising, partial curve, poor fit]",–
